PubChem BioAssay AID1224826 | NIAID – 2016
The whole screen tested about 17,000 reagents; below is a random part of them. About 1,110 of all reagents (6.6%) were called active. 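Active means lowered or raised reporter signal; replicate intensities are raw and not normalised per plate.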 Not all columns of the deposit are shown.

- Assay: 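Genes that change LPS-induced Tnf promoter activity in mouse macrophages when knocked down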 (primary screen)
- Cell system: RAW264.7 G9 macrophages from mouse bearing reporters for p65 (GFP) and the Tnf promoter (mCherry)
- Reagents: siRNA pool against mouse genes, 100 nM
- Duration: 16 h of LPS stimulation, after 2 days of siRNA transfection
- Treatment: bacterial lipopolysaccharide (Salmonella minnesota R595), 10 ng/ml
- Measurement: 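Nuclear mCherry signal of the Tnf promoter reporter measured by imaging after background removal, scaled to each plate median and turned into robust z-scores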
- Reading the numbers: Tnf reporter robust z-score: higher = stronger Tnf promoter reporter signal after LPS
- Rule for the call: 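a well counts as active at a score of -1.3 or below (Tlr4 knock-down control median) or above 3 (raised signal); controls and wells holding fewer than 50 cells are excluded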
- Meaning of the calls: active = Tnf reporter clearly lowered or raised; inactive = no clear change in Tnf reporter

Deaf1 [SID315471144] showed Tnf reporter robust z-score 0.09; fewer than 50 cells in well enough cells in well; inactive. Mrpl38 [SID315472018] scored Tnf reporter robust z-score 0.33; fewer than 50 cells in well enough cells in well; inactive. With knock-down of Atcay [SID315467548], the record shows Tnf reporter robust z-score 0.75; fewer than 50 cells in well enough cells in well; inactive. Fem1al [SID315478017] scored fewer than 50 cells in well fewer than 50 cells per well; well left out of calls; inactive. After knock-down of Hacd3 [SID315471837], the screen gave Tnf reporter robust z-score -0.21; fewer than 50 cells in well enough cells in well; inactive. For Nutm1 [SID315477824] the deposit lists Tnf reporter robust z-score -1.49; fewer than 50 cells in well enough cells in well; active.

Against Cryzl1 [SID315472537], the entry reads Tnf reporter robust z-score -0.12; fewer than 50 cells in well enough cells in well; inactive. Abhd18 [SID315480854] gave Tnf reporter robust z-score 1.46; fewer than 50 cells in well enough cells in well; inactive. Rpl31 [SID315477020] gave fewer than 50 cells in well fewer than 50 cells per well; well left out of calls; inactive. For Ifit3 [SID315467385] the deposit lists fewer than 50 cells in well fewer than 50 cells per well; well left out of calls; inactive. Knock-down of Hunk [SID315470437] resulted in: Tnf reporter robust z-score 0.06; fewer than 50 cells in well enough cells in well; inactive. With knock-down of Morc2b [SID315479482], the record shows fewer than 50 cells in well fewer than 50 cells per well; well left out of calls; inactive.

Hao1 [SID315467142] showed Tnf reporter robust z-score 0.75; fewer than 50 cells in well enough cells in well; inactive. Against Serpinb12 [SID315474356] the deposit lists Tnf reporter robust z-score 1.59; fewer than 50 cells in well enough cells in well; inactive. For Pwwp3b [SID315479831], the entry reads Tnf reporter robust z-score -0.76; fewer than 50 cells in well enough cells in well; inactive. Depletion of Naca [SID315468092] resulted in: Tnf reporter robust z-score -1.22; fewer than 50 cells in well enough cells in well; inactive. Rhcg [SID315471451] gave Tnf reporter robust z-score -0.69; fewer than 50 cells in well enough cells in well; inactive. Against Vcl [SID315469988], the entry reads Tnf reporter robust z-score -0.7; fewer than 50 cells in well enough cells in well; inactive.

Silencing of Hnrnpf [SID315476147] came out at: Tnf reporter robust z-score 0.59; fewer than 50 cells in well enough cells in well; inactive. With knock-down of St13 [SID315474022], the record shows Tnf reporter robust z-score -0.39; fewer than 50 cells in well enough cells in well; inactive. After knock-down of Rnf38 [SID315474735], the screen gave fewer than 50 cells in well fewer than 50 cells per well; well left out of calls; inactive.
